In US20170035742A1, “DURABLE TREATMENT WITH 4-AMINOPYRIDINE IN PATIENTS WITH DEMYELINATION” (Acorda Therapeutics, Inc., priority 2009, published 2017):

Tested on: patients with multiple sclerosis
Assay: MS-F203EXT open-label extension study

For `Nc1ccncc1` [4-aminopyridine], the retention rate (after one year) was 82.9% and the retention rate (after two years) was 75%.
